Data as given in PubChem BioAssay AID652259 (Drosophila RNAi Screening Center, 2013)
The deposit covers about 22,000 reagents; below is a random part of those with a known target gene and a result. Of all reagents, 233 (1.1%) were called active. 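Light values are raw, unnormalised plate reads; the ratio scores behind the reporter calls were not deposited.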 A plus sign joins genes that one reagent is predicted to hit. Not given: the amount of reagent, the time to read-out, the dose of the treatment.

Test: 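Identify new Wingless signalling regulators in fly cells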 (primary screen)
Cell system: Drosophila clone 8 imaginal disc epithelial cells
Reagent: long dsRNA against Drosophila genes
Conditions: pathway stimulated by co-transfected Wingless expression plasmid
Read-out: 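Firefly luciferase from a tcf-site Wingless reporter, measured alongside co-transfected Renilla luciferase that tracks transfection; pathway stimulated by a Wingless plasmid; the firefly-to-Renilla ratio is not deposited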
Direction: firefly reporter light: higher = more Wg reporter light, before normalisation; Renilla control light: higher = more transfected or surviving cells
Rule for the call: 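Strong candidates differ from their plate mean by at least two out of four per-plate statistical tests; weak candidates meet just one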
Calls: active = candidate regulator (raises or lowers reporter); inactive = not a candidate

gene | amplicon | firefly reporter light, replicate 1 | firefly reporter light, replicate 2 | Renilla control light, replicate 1 | Renilla control light, replicate 2 | activity call
I-t (inhibitor-t) | DRSC16713 | 23232 | – | 3841 | – | inactive
CG7728 | DRSC10907 | 3819 | – | 1660 | – | inactive
CenG1A (Centaurin gamma 1A) | DRSC02538 | 2084 | 6384 | 1072 | 3312 | inactive
CenG1A (Centaurin gamma 1A) | DRSC03505 | 3024 | 6600 | 1082 | 3317 | inactive
CenG1A (Centaurin gamma 1A) | DRSC03506 | 2416 | 6836 | 1141 | 2538 | inactive
Ir7e (Ionotropic receptor 7e) | DRSC18011 | 3444 | – | 1149 | – | inactive
CG17404 | DRSC15234 | 18569 | 6.86e5 | 6723 | 3.09e5 | inactive
sov (small ovary) | DRSC17930 | 2243 | 6587 | 661 | 2797 | inactive
nSyb (neuronal Synaptobrevin) | DRSC08727 | 17754 | – | 3080 | – | inactive
nSyb (neuronal Synaptobrevin) | DRSC22961 | 7.18e5 | 7.17e5 | 2.74e5 | 1.81e5 | inactive
CG15439 | DRSC00453 | 3656 | – | 541 | – | inactive
CG15012 | DRSC08465 | 6516 | – | 1993 | – | inactive
drm (drumstick) | DRSC00277 | 2112 | 7701 | 1115 | 1291 | inactive
Hmu (Hemomucin) | DRSC16705 | 4812 | – | 3126 | – | inactive
Fitm (Fat storage inducing transmembrane protein) | DRSC09772 | 5136 | – | 1850 | – | inactive
pasi2 (pasiflora 2) | DRSC16380 | 11898 | – | 2070 | – | inactive
CG42780 | DRSC17514 | 2400 | – | 781 | – | inactive
Ude (Uracil-DNA degrading factor) | DRSC15324 | 1988 | 5383 | 1089 | 1760 | inactive
mRRF1 (mitochondrial ribosome recycling factor 1) | DRSC10421 | 3110 | – | 1571 | – | inactive
hook | DRSC03545 | 7216 | – | 1164 | – | inactive
Mtr4 (Mtr4 helicase) | DRSC03560 | 8739 | – | 2374 | – | inactive
CG3345 | DRSC00596 | 13963 | – | 4225 | – | inactive
Su(fu) (Suppressor of fused) | DRSC16871 | 8189 | – | 2353 | – | inactive
CG31677 | DRSC22023 | 3.75e5 | 3.86e5 | 1.51e5 | 1.97e5 | inactive
Tti1 (Telo2 interacting protein 1) | DRSC15163 | 9952 | – | 2360 | – | inactive
CG14450 | DRSC11707 | 10864 | – | 2716 | – | inactive
Tcs6 + PIG-P | DRSC13742 | 2967 | – | 1648 | – | inactive
Tcs6 + PIG-P | DRSC14893 | 18096 | – | 14713 | – | inactive
CG6280 | DRSC06972 | 6306 | – | 1624 | – | inactive

2 entries from above, set out differently.
CG31677 [DRSC22023]
- firefly reporter light, replicate 1: 3.75e5
- firefly reporter light, replicate 2: 3.86e5
- Renilla control light, replicate 1: 1.51e5
- Renilla control light, replicate 2: 1.97e5
- activity call: inactive

Tti1 (Telo2 interacting protein 1) [DRSC15163]
- firefly reporter light, replicate 1: 9952
- Renilla control light, replicate 1: 2360
- activity call: inactive
